Measurements reported in PubChem BioAssay AID1159578 (Peter MacCallum Cancer Centre, 2015)
In all, the deposit lists about 18,000 reagents; shown is a part drawn at random. Of all reagents, about 1,030 (5.7%) are marked active. 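Inactive calls also include pools with fewer than 3300 nuclei, whose migration was not assessed.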 The raw values are shown without normalisation. Unmarked entries are inactive.

- Test: 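siRNA pools altering how lymphatic endothelial cells close a scratch wound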 (primary screen)
- Cells: human lymphatic endothelial cells
- Reagent: siRNA pool against human genes, 40 nM
- Timing: 48 h after transfection
- Detection: 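Cells stained with dye and imaged after a scratch; covered wound area and nuclei counted, duplicates averaged, migration set against mock wells and turned into a robust z-score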
- Reading the numbers: migration robust z-score: higher = faster migration into the scratch; migration relative to mock: higher = more scratch area covered than mock; nuclei per well: higher = more cells in the well
- Call rule: 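Pools averaging fewer than 3300 nuclei are never called; remaining pools count as changed when migration robust z lies outside -2 to 2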
- Calls: active = migration changed; inactive = no migration change, or too few cells

gene symbol	migration robust z-score	migration class with cell-count check	migration relative to mock	nuclei per well, duplicate mean
MYH8	1.25	migration z between -2 and 2; enough cells	1.04	5090
SLC22A12	0.39	migration z between -2 and 2; enough cells	0.88	5879
ZNF138	1.13	migration z between -2 and 2; enough cells	1.18	6456
CA11	-0.57	migration z between -2 and 2; enough cells	0.7	6034
NFKBIL1	-0.16	migration z between -2 and 2; enough cells	0.77	6680
MIR1915HG	1.02	migration z between -2 and 2; enough cells	1.15	6242
PHF2	1.24	migration z between -2 and 2; enough cells	1.04	6281
MKI67	0.11	migration z between -2 and 2; enough cells	0.92	6676
CNTRL	1.22	migration z between -2 and 2; enough cells	1.04	7148
SLC26A5	-0.94	under 3300 nuclei; migration not judged	0.62	2796
S100A14	0.58	migration z between -2 and 2; enough cells	1.04	5499
DPYD	0.11	migration z between -2 and 2; enough cells	0.92	7472
ASPM	-0.23	migration z between -2 and 2; enough cells	0.83	5100
SYMPK	-0.58	migration z between -2 and 2; enough cells	0.74	5806
APLP2	-0.96	migration z between -2 and 2; enough cells	0.64	7294
MYBBP1A	-0.78	migration z between -2 and 2; enough cells	0.66	5307
PRDM12	0.18	migration z between -2 and 2; enough cells	0.84	6106
WWC2	-1.97	migration z between -2 and 2; enough cells	0.38	5750
ESYT2	-0.25	migration z between -2 and 2; enough cells	0.82	6830
GTF2I	-0.62	migration z between -2 and 2; enough cells	0.73	6418
ZNF532	-0.64	migration z between -2 and 2; enough cells	0.72	5586
CHRNG	0.36	migration z between -2 and 2; enough cells	0.88	5866
SLC14A1	0.99	migration z between -2 and 2; enough cells	1	6051
ARMC9	-0.31	migration z between -2 and 2; enough cells	0.8	5805
HCAR2	0.68	migration z between -2 and 2; enough cells	0.94	4942
PHF23	0.75	migration z between -2 and 2; enough cells	0.95	6025
DRD4	0.52	migration z between -2 and 2; enough cells	0.9	5976
HBS1L	-0.21	migration z between -2 and 2; enough cells	0.76	4938
POU3F1	-1.28	migration z between -2 and 2; enough cells	0.55	6095
DCSTAMP	0.97	migration z between -2 and 2; enough cells	1.13	6168
PI16	-0.87	migration z between -2 and 2; enough cells	0.66	6214
PCSK7	1.06	migration z between -2 and 2; enough cells	1.01	5147
AAK1	0.2	migration z between -2 and 2; enough cells	0.84	4564
SCARF1	1.68	migration z between -2 and 2; enough cells	1.32	5296
TM4SF18	-0.72	migration z between -2 and 2; enough cells	0.7	5115
NOL8	0.98	migration z between -2 and 2; enough cells	1.14	4992
RNPEP	0.8	migration z between -2 and 2; enough cells	0.96	6472
IFNE	-2.54 (active)	migration z below -2; enough cells	0.23	4146
KRT13	-3.66 (active)	migration z below -2; enough cells	-0.06	4020
CD163	0.31	migration z between -2 and 2; enough cells	0.86	5040
AFDN	-1.26	migration z between -2 and 2; enough cells	0.56	5520
CPA3	-1.55	migration z between -2 and 2; enough cells	0.5	5142
CNTNAP3	1.24	migration z between -2 and 2; enough cells	1.21	5500
TP53INP2	-0.33	migration z between -2 and 2; enough cells	0.8	6359
ZNF584	0.31	migration z between -2 and 2; enough cells	0.96	6554
TAB3	-0.08	migration z between -2 and 2; enough cells	0.86	6921
IMPDH2	0.36	migration z between -2 and 2; enough cells	0.88	5426
NOD2	-0.28	migration z between -2 and 2; enough cells	0.75	4348
PPCDC	1.84	migration z between -2 and 2; enough cells	1.16	5662
SRCAP	0.2	migration z between -2 and 2; enough cells	0.84	4286
COMMD5	1.6	migration z between -2 and 2; enough cells	1.3	5834
EIF4H	-0.2	migration z between -2 and 2; enough cells	0.76	4651
ZNRF2	1.43	migration z between -2 and 2; enough cells	1.08	5216
UNCX	-2.29 (active)	migration z below -2; enough cells	0.28	4396
WIF1	0.09	migration z between -2 and 2; enough cells	0.9	7020
CCDC88B	-0.52	migration z between -2 and 2; enough cells	0.75	4648
RASA2	-0.31	migration z between -2 and 2; enough cells	0.74	6402
SAG	-1.19	migration z between -2 and 2; enough cells	0.58	5095
OR10A3	0.69	migration z between -2 and 2; enough cells	1.06	5298
L1CAM	0	migration z between -2 and 2; enough cells	0.88	4782
ANK2	-0.65	migration z between -2 and 2; enough cells	0.68	5913
RNF103	0.31	migration z between -2 and 2; enough cells	0.86	4390
CNST	-0.14	migration z between -2 and 2; enough cells	0.85	7043
SLC9A8	0.44	migration z between -2 and 2; enough cells	1	4886
CCN3	-0.21	migration z between -2 and 2; enough cells	0.76	4234
PRKCZ	0.2	migration z between -2 and 2; enough cells	0.84	6944
PMS2P5	0.44	migration z between -2 and 2; enough cells	1	5666
GSTA1	0.02	migration z between -2 and 2; enough cells	0.89	7192
ESCO2	-1.37	migration z between -2 and 2; enough cells	0.53	5398
KIF18B	0.32	migration z between -2 and 2; enough cells	0.97	6960
ZNF529	-1.2	migration z between -2 and 2; enough cells	0.58	4196
MYBPC3	-0.34	migration z between -2 and 2; enough cells	0.8	6070
RFWD3	-1.97	migration z between -2 and 2; enough cells	0.42	4794

Laid out differently: results already given.
gene symbol,migration robust z-score,migration class with cell-count check,migration relative to mock,"nuclei per well, duplicate mean"
PI16,-0.87,migration z between -2 and 2; enough cells,0.66,6214
PCSK7,1.06,migration z between -2 and 2; enough cells,1.01,5147
AAK1,0.2,migration z between -2 and 2; enough cells,0.84,4564
SCARF1,1.68,migration z between -2 and 2; enough cells,1.32,5296
TM4SF18,-0.72,migration z between -2 and 2; enough cells,0.7,5115
NOL8,0.98,migration z between -2 and 2; enough cells,1.14,4992
RNPEP,0.8,migration z between -2 and 2; enough cells,0.96,6472
IFNE,-2.54 (active),migration z below -2; enough cells,0.23,4146
KRT13,-3.66 (active),migration z below -2; enough cells,-0.06,4020
